In patent US6825035, “Compositions and methods for modulating expression within smooth muscle cells” (Setagon, Inc.):

Target: T1, Serum response factor (SRF) (UniProt D3ZHH8)
T1 sequence (looked up, limits assumed): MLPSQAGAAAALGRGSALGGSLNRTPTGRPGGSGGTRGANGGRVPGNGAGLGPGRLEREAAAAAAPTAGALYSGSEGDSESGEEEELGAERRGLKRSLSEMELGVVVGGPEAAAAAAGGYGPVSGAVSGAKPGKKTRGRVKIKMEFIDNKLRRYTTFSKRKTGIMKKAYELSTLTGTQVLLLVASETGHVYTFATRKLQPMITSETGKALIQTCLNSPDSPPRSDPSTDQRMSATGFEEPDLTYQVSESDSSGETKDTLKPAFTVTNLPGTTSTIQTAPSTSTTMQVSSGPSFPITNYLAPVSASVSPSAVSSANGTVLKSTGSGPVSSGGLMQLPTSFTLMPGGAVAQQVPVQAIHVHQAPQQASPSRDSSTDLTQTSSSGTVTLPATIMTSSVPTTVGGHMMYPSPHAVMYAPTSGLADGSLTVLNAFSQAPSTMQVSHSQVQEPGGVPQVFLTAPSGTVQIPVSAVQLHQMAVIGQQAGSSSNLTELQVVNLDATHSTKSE
Assay: EMSA
Conditions: synthetic protein

“AATAATTAAA (double strand) [Intronic CArG mut]”: no binding (CITED previously shown to abolish SRF binding in gel shift, only mutated 10-mer core printed).

AATTGTTTAA (double strand) [CArG A mut]: no binding (CITED previously shown to abolish SRF binding in gel shift, only mutated 10-mer core printed, variant of CArG A (SM alpha-actin 5' promoter)).

“GAGGTCCCTATATGGTTGTG (double strand) [CArG B (SM alpha-actin 5' promoter)]”: binds more weakly (binds SRF, less avidly than intronic CArG, same buffer, label: 32P end label).

CCCTATATCA (double strand) [CArG B mut]: no binding (CITED previously shown to abolish SRF binding in gel shift, only mutated 10-mer core printed, variant of CArG B (SM alpha-actin 5' promoter)).

“TTGCTCCTTGTTTGGGAAGC (double strand) [CArG A (SM alpha-actin 5' promoter)]”: binds more weakly (binds SRF poorly, less avidly than intronic CArG, same buffer, label: 32P end label).

A weaker result is weaker than the reference pair of the same experiment. Protein sequences can lack the tags named with them. For at least one entry, the source does not settle the construct or the ends of the probe. A negative result means that nothing was seen under these conditions.
